Measurements: article PMC11024343

Biological target: HA-CagF (H. pylori)
Assay: affinity purification with mass spectrometry; HA-CagF captured from H. pylori lysate (RIPA buffer) with anti-HA antibodies on protein G Dynabeads, eluted with HA peptide; LC-MS/MS of the preparations; WT (two experiments), ∆cagT and ∆cagM strains

B1: CagY (protein, UniProt D3XNT5 1-77)
chain: MGNANEVRDKFIQNYATSLKDSNDPQDFLRRVQELRINMQKNFISFDAYYNYLNNLVLASYTSLQTRKDFCRKHDQK
B1 was tested, and the binding was “binds”.

No constants are given. Whether binding was seen depends on the method and setting. Binding seen in cells or lysates may run through a third protein. These calls come from enrichment with a bait or labelling near it, and not all partners need be listed.
